Measured values taken from patent US11406719B2, “Dichromic fluorescent compounds” (Washington University, priority 2008, dated 2022).
Some results were stated once for a whole list of compounds, not compound by compound.

Experiment: Fluorescence lifetime by time correlated single photon counting (TCSPC)
Assay type: physicochemical
Settings: DMSO
Experimental: Fluorescence lifetime (FLT) was measured using time correlated single photon counting (TCSPC) technique with excitation sources NanoLed® (HORIBA Jobin Yvon Inc.) at 700 nm and 773 nm and impulse repetition rate of 1 MHz at 90° to a R928P detector (Hamamatsu Photonics, Japan). The detector was set to either 750 nm (for Nanoled 700 nm) or for 820 nm (for Nanoled 773 nm) with a 20 nm bandpass. The electrical signal was amplified by TB-02 pulse amplifier (HORIBA Jobin Yvon Inc.) and the amplified signal was fed to the constant fraction discriminator CFD (Philips, Netherlands). The first detected photon represented the start signal by the time-to-amplitude converter (TAC) and the excitation pulse triggered the stop signal. The multi-channel analyzer (MCA) recorded repetitive start-stop signals from the TAC and generated a histogram of photons as a function of time-calibrated channels (6.878 ps/channel) until the peak signal reached 10,000 counts. The lifetime was recorded on a 50 ns scale. The instrument response function was obtained by using Rayleigh scatter of Ludox-40 (Sigma-Aldrich, St. Louis, Mo.) (0.03% in Milli-Q water) in a quartz cuvette at either 700 nm or 773 nm emission. DAS6 v6.1 decay analysis software (HORIBA Jobin Yvon Inc.) was used for lifetime calculations. The goodness of fit was judged by χ^2 values and Durbin-Watson parameters and visual observations of fitted line, residuals and autocorrelation function

| Compound | fluorescence lifetime at 700 nm, times longer than that at 800 nm [times] |
| --- | --- |
| CC1(C)C(/C=C/C=C/C=C/C=C2/N(CCC(=O)O)c3ccc4ccccc4c3C2(C)C)=[N+](CCC(=O)[O-])c2ccc3ccccc3c21 [Compound 1, cypate, reference compound] | > 1.5 |
| CC1(C)C(/C=C/C=C/C=C/C=C2/N(CCCCS(=O)(=O)O)c3ccc4ccccc4c3C2(C)C)=[N+](CCCCS(=O)(=O)[O-])c2ccc3ccccc3c21 [Compound 2, indocyanine green, reference compound] | > 1.5 |
| cypate-NH2 [Compound 4] | > 1.5 |
